The text below walks through data of patent US7238473.

The exact form of at least one protein or probe is not confirmed. Where cells or extracts were used, other partners may take part. For part of these data: A negative result means that nothing was seen under these conditions. Tags and fusion partners may be left off the protein sequences shown.

What all share (test): binding assay
Data set [1] addresses T1, TTP(1-173) (Homo sapiens) (UniProt P26651).
T1 sequence: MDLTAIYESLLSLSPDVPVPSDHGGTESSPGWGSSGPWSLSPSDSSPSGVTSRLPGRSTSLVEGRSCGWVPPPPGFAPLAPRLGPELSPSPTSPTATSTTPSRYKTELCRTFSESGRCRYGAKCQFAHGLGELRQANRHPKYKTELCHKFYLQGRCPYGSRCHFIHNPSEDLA
To be noted: UV cross-linking; protein in a lysate after overexpression; protein details: C-terminal HA; label: 32P-UTP.

In data set [2] the target is T2, TTP(97-173) (Homo sapiens) (UniProt P26651).
T2 sequence: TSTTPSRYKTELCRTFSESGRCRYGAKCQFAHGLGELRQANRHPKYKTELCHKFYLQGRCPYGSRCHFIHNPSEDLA
As to conditions: UV cross-linking; protein in a lysate after overexpression; protein details: C-terminal HA; label: 32P-UTP.

The target in data set [3] is T3, XC3H-3 (TIS11d/ERF2 homologue) (Xenopus laevis) (UniProt Q7ZXW9).
T3 sequence (looked up, limits assumed): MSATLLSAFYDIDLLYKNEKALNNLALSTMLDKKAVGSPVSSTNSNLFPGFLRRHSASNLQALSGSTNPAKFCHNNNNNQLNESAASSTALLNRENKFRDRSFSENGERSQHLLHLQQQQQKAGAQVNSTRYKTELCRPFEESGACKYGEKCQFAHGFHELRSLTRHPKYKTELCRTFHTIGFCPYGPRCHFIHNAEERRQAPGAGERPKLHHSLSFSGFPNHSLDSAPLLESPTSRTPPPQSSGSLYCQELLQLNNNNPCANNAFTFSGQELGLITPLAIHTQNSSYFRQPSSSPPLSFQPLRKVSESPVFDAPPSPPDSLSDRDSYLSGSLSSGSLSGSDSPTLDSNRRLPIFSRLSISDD
As to conditions: UV cross-linking; EMSA also positive (p256); protein in a lysate after overexpression; protein details: C-terminal HA; label: 32P-UTP.

In data set [4] the test system is T4, XC3H-4 full length (Xenopus laevis).
T4 sequence: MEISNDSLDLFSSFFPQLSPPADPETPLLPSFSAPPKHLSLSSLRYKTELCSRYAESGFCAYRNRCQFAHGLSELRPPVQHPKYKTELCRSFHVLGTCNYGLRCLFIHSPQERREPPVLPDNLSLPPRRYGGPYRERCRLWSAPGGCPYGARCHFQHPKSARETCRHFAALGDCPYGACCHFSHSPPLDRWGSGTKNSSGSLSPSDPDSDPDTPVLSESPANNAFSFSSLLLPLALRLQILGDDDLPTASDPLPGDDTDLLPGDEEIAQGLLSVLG
As to conditions: UV cross-linking; protein in a lysate after overexpression; protein details: C-terminal HA (Xenopus oocyte extract); label: 32P-UTP.

In a further data set the target is T5, TTP mouse (Mus musculus) (UniProt P22893).
T5 sequence (looked up, limits assumed): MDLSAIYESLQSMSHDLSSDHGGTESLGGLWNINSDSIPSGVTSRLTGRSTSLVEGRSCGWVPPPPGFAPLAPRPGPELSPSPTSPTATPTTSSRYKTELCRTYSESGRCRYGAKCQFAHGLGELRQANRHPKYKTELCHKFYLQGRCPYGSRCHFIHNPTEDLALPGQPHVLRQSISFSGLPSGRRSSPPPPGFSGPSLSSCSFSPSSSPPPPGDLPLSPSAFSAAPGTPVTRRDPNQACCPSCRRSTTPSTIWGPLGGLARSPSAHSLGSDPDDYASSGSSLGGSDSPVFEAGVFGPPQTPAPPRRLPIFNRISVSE
As to conditions: UV cross-linking; protein in a lysate after overexpression; protein details: C-terminal HA (CMV.mTTP.tag); label: 32P-UTP.

For data set [5], the target named is T6, TTP(97-326) (Homo sapiens) (UniProt P26651).
T6 sequence: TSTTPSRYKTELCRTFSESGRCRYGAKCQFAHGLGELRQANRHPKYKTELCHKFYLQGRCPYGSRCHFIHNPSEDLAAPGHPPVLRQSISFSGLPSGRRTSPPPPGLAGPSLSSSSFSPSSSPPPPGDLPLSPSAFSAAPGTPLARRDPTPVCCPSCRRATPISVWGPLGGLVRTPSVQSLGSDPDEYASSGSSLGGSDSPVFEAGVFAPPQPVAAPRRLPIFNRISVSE
As to conditions: UV cross-linking; protein in a lysate after overexpression; protein details: C-terminal HA; label: 32P-UTP.

In a further data set the target is T7, U2AF35 (Homo sapiens) (UniProt Q01081).
T7 sequence (looked up, limits assumed): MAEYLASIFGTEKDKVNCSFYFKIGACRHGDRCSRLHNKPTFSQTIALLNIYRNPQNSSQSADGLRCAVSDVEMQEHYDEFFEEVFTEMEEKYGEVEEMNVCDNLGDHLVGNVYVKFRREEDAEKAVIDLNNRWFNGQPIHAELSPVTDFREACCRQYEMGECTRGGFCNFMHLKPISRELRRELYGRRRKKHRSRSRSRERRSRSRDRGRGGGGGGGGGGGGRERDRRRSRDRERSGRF
To be noted: UV cross-linking and EMSA; protein in a lysate after overexpression; label: 32P-UTP.

Data set [6] deals with T8, XC3H-4(1-120) (Xenopus laevis).
T8 sequence: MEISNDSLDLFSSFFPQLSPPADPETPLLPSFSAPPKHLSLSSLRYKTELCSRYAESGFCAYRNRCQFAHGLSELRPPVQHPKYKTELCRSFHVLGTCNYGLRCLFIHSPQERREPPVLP
As to conditions: UV cross-linking, complex of about Mr 15,000; protein in a lysate after overexpression; protein details: C-terminal HA (oocyte extract); label: 32P-UTP.

Data set [7] deals with T9, XC3H-1 (Xenopus TTP) (Xenopus laevis) (UniProt Q9W671).
T9 sequence (looked up, limits assumed): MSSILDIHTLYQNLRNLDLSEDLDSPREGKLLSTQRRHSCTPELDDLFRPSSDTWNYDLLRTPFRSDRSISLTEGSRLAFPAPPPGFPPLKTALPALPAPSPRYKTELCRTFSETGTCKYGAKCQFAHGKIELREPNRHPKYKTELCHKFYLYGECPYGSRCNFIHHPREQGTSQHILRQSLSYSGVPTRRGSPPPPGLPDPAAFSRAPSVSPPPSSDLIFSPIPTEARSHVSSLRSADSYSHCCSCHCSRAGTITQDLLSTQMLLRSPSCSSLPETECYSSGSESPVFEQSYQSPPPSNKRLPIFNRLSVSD
As to conditions: UV cross-linking; protein in a lysate after overexpression; protein details: C-terminal HA; label: 32P-UTP.

Regarding “CUCUAUUUAUAUUUGCACUUAUUAUUUAUUAUUUAUUUAUUAUUUAUUUAUUUGCUUAUGAAUGUAUUUA [TNFa ARE probe 1281-1350]”, the binding result (in data set [1]; in data set [2]; in data set [3]; in data set [4]; with TTP mouse (Mus musculus); in data set [5]) was “binds” throughout. The binding result is “no binding” with U2AF35 (Homo sapiens), “binds” in data set [6] and “binds” in data set [7].
